At least one structure is not confirmed: it was looked up by name or label, or the drawing left a doubt.
Test system: BCL1 leukemia
Test: Survival of BCL1 leukemia-bearing mice
Format: in vivo, BALB/c mice
Conditions: MJ 60 mg/kg i.v. or adriamycin 4 mg/kg i.p. alone
Description: Balb/c male mice (7-8 weeks old) were obtained from the breeding colony of Tel-Aviv University, Israel. Animal care and experimentation were carried out in accordance with Tel-Aviv University guidelines and approved by the institutional animal use and care committee. Mice were kept in cages under standard food and housing conditions during the experiments.
2×10^4 BCL1 cells, freshly extracted from BCL1 leukemia bearing BALB/c mice, were inoculated intraperitoneally (i.p.) into mice in 100 μl PBS to produce tumor growth. Methyl jasmonate at 60 mg/kg was administered to animals 5 times a week, daily, for 4 weeks, starting one day after cell inoculation. […] MJ was dissolved in a lipid formulation, Lipofundin (B. Braun Melsungen, Melsungen, Germany). The adriamycin was given to mice twice, on days 7 and 14, at 4 mg/kg, i.p. Control mice were treated with the vehicle alone. The survival of mice was monitored daily.
Statistical significance in in vitro experiments was assessed using the two-tailed Student's t-test. P<0.05 was considered statistically significant. The survival curves (Kaplan-Meier test) and statistical analysis (Mantel-Cox test) were carried out using Statistical software.
Since adriamycin is used for treatment of leukemia, it was chosen for an experiment assessing a combination with MJ in vivo. […]

SMILES: CC/C=C\CC1C(=O)CCC1CC(=O)OC (stereo not shown) [MJ, methyl 3-oxo-2-(2-pentenyl)cyclopentaneacetic acid]
- Survival of BCL1 leukemia-bearing mice, single agent: did not induce increased survival

— patent publication US20100003346A1, “COMBINATION METHODS OF TREATING CANCER” (priority 2006, published 2010)
